Experimental data: PubChem BioAssay AID1259308 (NCATS, 2017)

Purpose: 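Candidate targets for better recombinant protein yield in mammalian cells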 (primary screen)
Cell system: human HEK293 embryonic kidney cells stably expressing firefly luciferase (HEK-CMV-Luc2-Hygro)
Reagents: single siRNA against human genes, 0.8 pmol siRNA per well
Time to read-out: 72 h
Detection: 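Luciferase light (ONE-Glo) measured on one replicate plate set and viability (CellTiter-Glo) on the other, scaled to a negative control siRNA, with robust z-scores and luciferase per cell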
Direction: total luciferase, z-score and total luciferase, % of control: higher = more reporter protein produced
Rule for the call: 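Active when the median/MAD z-score for overall luciferase is greater than 3; a gene was taken forward for validation with new siRNAs if at least two of its three siRNAs passed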
Meaning of the calls: active = raised luciferase; inactive = no rise
Shown is one part, drawn at random, of about 59,000 reagents tested. Over the whole deposit, about 1,510 (2.6%) were called active. 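Calls use total luciferase alone and ignore viability, so some active siRNAs may act by altering cell number.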 The numbers tell different reagents against one gene apart. Not all columns of the deposit are shown.

{"Gene": "MAGEB4 (MAGE family member B4)", "reagent": 1, "total luciferase, z-score": -0.141, "total luciferase, % of control": 79.1, "call": "inactive"}
{"Gene": "MAGEB4 (MAGE family member B4)", "reagent": 2, "total luciferase, z-score": 1.59, "total luciferase, % of control": 114, "call": "inactive"}
{"Gene": "MAGEB4 (MAGE family member B4)", "reagent": 3, "total luciferase, z-score": 0.173, "total luciferase, % of control": 85.3, "call": "inactive"}
{"Gene": "RD3 (RD3 regulator of GUCY2D)", "reagent": 1, "total luciferase, z-score": -0.345, "total luciferase, % of control": 75, "call": "inactive"}
{"Gene": "RD3 (RD3 regulator of GUCY2D)", "reagent": 2, "total luciferase, z-score": -0.809, "total luciferase, % of control": 65.8, "call": "inactive"}
{"Gene": "RD3 (RD3 regulator of GUCY2D)", "reagent": 3, "total luciferase, z-score": -0.589, "total luciferase, % of control": 70.2, "call": "inactive"}
{"Gene": "LAMP1 (lysosome associated membrane protein 1)", "reagent": 1, "total luciferase, z-score": 0.0163, "total luciferase, % of control": 82.2, "call": "inactive"}
{"Gene": "LAMP1 (lysosome associated membrane protein 1)", "reagent": 2, "total luciferase, z-score": 1.04, "total luciferase, % of control": 103, "call": "inactive"}
{"Gene": "LAMP1 (lysosome associated membrane protein 1)", "reagent": 3, "total luciferase, z-score": -1.11, "total luciferase, % of control": 59.7, "call": "inactive"}
{"Gene": "ZNF658 (zinc finger protein 658)", "reagent": 1, "total luciferase, z-score": 0.23, "total luciferase, % of control": 86.5, "call": "inactive"}
{"Gene": "ZNF658 (zinc finger protein 658)", "reagent": 2, "total luciferase, z-score": 0.109, "total luciferase, % of control": 84.1, "call": "inactive"}
{"Gene": "ZNF658 (zinc finger protein 658)", "reagent": 3, "total luciferase, z-score": 3.09, "total luciferase, % of control": 143, "call": "active"}

Just “total luciferase, % of control”, for 2 of the entries above:
MAGEB4 (MAGE family member B4) #2	114
MAGEB4 (MAGE family member B4) #3	85.3
